PubChem BioAssay AID1224830 | NIAID | 2016
Shown is a random part of about 18,000 reagents tested. In the full data, about 2,900 (16%) were called active. 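Calls are made per well; low scores hint the gene aids the LPS response, high scores that it dampens it.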 Repeated entries: four replicate wells of each siRNA pool.

Test: 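Genes whose knock-down alters the TNF-alpha reporter response to LPS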 (primary screen)
System: human THP-1 monocytic leukaemia cells, TNF dual-luciferase reporter clone, PMA-differentiated to macrophage-like cells
Reagents: siRNA pool against human genes, 50 nM
Time to read-out: LPS for 4 h, given about 3 days after siRNA transfection
Conditions: bacterial LPS (TLR4 ligand), 10 ng/ml
Measured: 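TNF firefly reporter luminescence divided by renilla, normalised to the plate median, then turned into a robust z-score for each replicate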
Reading the numbers: TNF reporter robust z-score: higher = stronger TNF reporter response to LPS
Hit rule: 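a well is active when its z-score exceeds 2.8 or falls below -1.5; control wells carry no call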

Gene	TNF reporter robust z-score	Outcome
PITPNB	0.6	inactive
PITPNB	0.94	inactive
PITPNB	1.62	inactive
PITPNB	0.82	inactive
SECISBP2	-0.99	inactive
SECISBP2	-1.09	inactive
SECISBP2	-1.27	inactive
SECISBP2	-1.12	inactive
TCL1A	0.84	inactive
TCL1A	3.2	active
TCL1A	1.18	inactive
TCL1A	2.52	inactive
AKR1C2	3.1	active
AKR1C2	2.22	inactive
AKR1C2	2.35	inactive
AKR1C2	3.16	active
TAGAP	0.16	inactive
TAGAP	1.38	inactive
TAGAP	-0.55	inactive
TAGAP	1.17	inactive
COQ5	0.13	inactive
COQ5	-0.48	inactive
COQ5	-0.44	inactive
COQ5	0.22	inactive
HINT1	0.94	inactive
HINT1	2.06	inactive
HINT1	2.19	inactive
HINT1	1.32	inactive
KLHL36	0.25	inactive
KLHL36	-0.09	inactive
KLHL36	-0.1	inactive
KLHL36	0.61	inactive
NALCN	-1.13	inactive
NALCN	-0.43	inactive
NALCN	-0.59	inactive
NALCN	0.56	inactive
RAP1GDS1	-0.39	inactive
RAP1GDS1	-0.32	inactive
RAP1GDS1	-0.47	inactive
RAP1GDS1	-0.53	inactive
TMEM236	0.61	inactive
TMEM236	0.17	inactive
TMEM236	-0.42	inactive
TMEM236	-0.59	inactive
C2CD4B	-0.77	inactive
C2CD4B	-0.5	inactive
C2CD4B	-0.95	inactive
C2CD4B	0.17	inactive

Laid out differently: results already given
Gene,TNF reporter robust z-score,Outcome
NALCN,-0.43,inactive
NALCN,-0.59,inactive
NALCN,0.56,inactive
RAP1GDS1,-0.39,inactive
RAP1GDS1,-0.32,inactive
RAP1GDS1,-0.47,inactive
